The target of the assay is Escherichia coli TatD, full-length, with a C-terminal His-tag (E. coli) (UniProt P27859). The assay is described as follows: SEC; gel filtration on Superdex 200 16/60 PG, pH 7.2; purified full-length TatD alone; both purified. Background: In gel filtration, larger molecules generally elute earlier.

Results are given in words; binding and its absence hold for the method and conditions named. Where a sequence is shown, tags or fusion partners need not be part of it.

B1: Escherichia coli TatD, full-length, with a C-terminal His-tag (enzyme, UniProt P27859 1-260)
chain: MFDIGVNLTSSQFAKDRDDVVACAFDAGVNGLLITGTNLRESQQAQKLARQYSSCWSTAGVHPHDSSQWQAATEEAIIELAAQPEVVAIGECGLDFNRNFSTPEEQERAFVAQLRIAADLNMPVFMHCRDAHERFMTLLEPWLDKLPGAVLHCFTGTREEMQACVAHGIYIGITGWVCDERRGLELRELLPLIPAEKLLIETDAPYLLPRDLTPKPSSRRNEPAHLPHILQRIAHWRGEDAAWLAATTDANVKTLFGIAF
Regarding B1, the binding entry was “no binding”.

(Values after publication PMC4176340, “Structure and function of TatD exonuclease in DNA repair”.)
